Values quoted from earlier work in publication PMC8245906 (Acta Pharmaceutica Sinica. B, 2021).

Test system: SARS-CoV-2
Conditions: read-out: EC50 against SARS-CoV-2; primary human airway epithelial cells; cited from earlier work

CCC(CC)COC(=O)[C@H](C)N[P@](=O)(OC[C@H]1O[C@@](C#N)(c2ccc3c(N)ncnn23)[C@H](O)[C@@H]1O)Oc1ccccc1 [RDV, Remdesivir]
EC50: 10 nM
